Measured values as given in article PMC4904241.
No constants are given. Whether binding was seen depends on the method and setting. For some of these results: In cells and extracts the contact can be indirect. For some of these results: A result given as binding can be weak or reduced; the word gives no strength. Where a sequence is shown, tags or fusion partners need not be part of it. Blank lines part the entries; values can stand above or below the molecule they belong to.

Amino acid sequences for entries named in this document (tags omitted). A change or cut given only in a name is not applied to a line headed by its entry.
UniProt Q8IXL6: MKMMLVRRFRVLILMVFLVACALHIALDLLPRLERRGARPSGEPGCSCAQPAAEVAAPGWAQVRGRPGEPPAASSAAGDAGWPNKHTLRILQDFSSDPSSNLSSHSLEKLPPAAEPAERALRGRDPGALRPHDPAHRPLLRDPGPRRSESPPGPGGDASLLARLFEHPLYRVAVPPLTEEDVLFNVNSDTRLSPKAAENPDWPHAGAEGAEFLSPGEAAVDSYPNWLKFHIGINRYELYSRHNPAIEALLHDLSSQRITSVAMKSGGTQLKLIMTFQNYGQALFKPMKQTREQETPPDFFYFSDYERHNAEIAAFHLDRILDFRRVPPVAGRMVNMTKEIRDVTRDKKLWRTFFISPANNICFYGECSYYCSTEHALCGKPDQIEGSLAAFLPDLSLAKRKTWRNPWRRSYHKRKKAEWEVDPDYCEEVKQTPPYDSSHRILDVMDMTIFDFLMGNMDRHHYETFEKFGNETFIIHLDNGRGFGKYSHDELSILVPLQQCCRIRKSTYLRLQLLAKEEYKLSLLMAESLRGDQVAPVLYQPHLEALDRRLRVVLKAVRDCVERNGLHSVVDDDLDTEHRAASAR

Assays:
[1] = biological target: T1, FAM20A WT-Flag (human) (UniProt Q96MK3); test: co-IP; 293 cells co-transfected with FAM20A WT-Flag and FAM20C-HA; lysates after 24 hours immunoprecipitated with anti-Flag antibody, Western blot with anti-HA antibody
T1 sequence: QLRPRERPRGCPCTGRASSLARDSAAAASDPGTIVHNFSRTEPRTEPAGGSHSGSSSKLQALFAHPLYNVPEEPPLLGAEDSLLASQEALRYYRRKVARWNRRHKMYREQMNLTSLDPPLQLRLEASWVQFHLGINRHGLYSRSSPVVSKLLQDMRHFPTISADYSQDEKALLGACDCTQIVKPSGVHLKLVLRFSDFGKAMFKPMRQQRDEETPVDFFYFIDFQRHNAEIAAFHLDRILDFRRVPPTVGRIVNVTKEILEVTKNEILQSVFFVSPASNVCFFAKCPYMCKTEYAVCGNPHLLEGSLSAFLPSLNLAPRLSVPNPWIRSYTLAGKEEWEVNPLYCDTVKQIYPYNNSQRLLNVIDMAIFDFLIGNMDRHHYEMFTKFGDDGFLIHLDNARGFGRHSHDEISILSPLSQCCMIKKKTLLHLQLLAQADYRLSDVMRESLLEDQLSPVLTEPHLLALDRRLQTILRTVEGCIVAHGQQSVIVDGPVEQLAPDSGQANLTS

[2] = biological target: T2, GST-FAM20A fusion protein (human) (UniProt Q96MK3); test: pull-down; GST or GST-FAM20A incubated with rhFAM20C WT- or D478A-V5/His overnight at 4 °C, glutathione-sepharose beads added, washed twice with lysis buffer, Western blot with anti-V5 antibody; both purified
T2 sequence: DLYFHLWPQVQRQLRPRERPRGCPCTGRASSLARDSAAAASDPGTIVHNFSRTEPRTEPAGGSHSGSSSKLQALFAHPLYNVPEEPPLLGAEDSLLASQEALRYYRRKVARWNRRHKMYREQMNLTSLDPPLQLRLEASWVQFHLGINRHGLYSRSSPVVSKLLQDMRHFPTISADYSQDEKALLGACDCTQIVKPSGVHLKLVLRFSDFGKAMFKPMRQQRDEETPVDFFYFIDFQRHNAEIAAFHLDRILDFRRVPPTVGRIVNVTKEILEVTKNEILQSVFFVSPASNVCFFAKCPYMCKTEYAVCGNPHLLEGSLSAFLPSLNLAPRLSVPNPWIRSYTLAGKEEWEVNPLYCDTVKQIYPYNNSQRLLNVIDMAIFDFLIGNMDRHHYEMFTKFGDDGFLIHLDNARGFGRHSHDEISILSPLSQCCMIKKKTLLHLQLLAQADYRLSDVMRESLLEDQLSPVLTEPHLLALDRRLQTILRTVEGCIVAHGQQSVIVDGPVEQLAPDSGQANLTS

[3] = biological target: FAM20C P328S-V5 (human) (UniProt Q8IXL6); test: co-IP; 293 cells co-transfected with FAM20A WT-HA and FAM20C WT-, D478A- or P328S-V5; lysates immunoprecipitated with anti-V5 antibody, Western blot with anti-HA antibody
[4] = biological target: rhFAM20C WT-V5/His (human) (UniProt Q8IXL6); test: as above

binding [1]: binds
Molecule: FAM20C WT-HA (from UniProt Q8IXL6)

binding [2]: no binding
Molecule: rhFAM20C WT-V5/His (from UniProt Q8IXL6) (enzyme)

binding [3]: binds | binding [4]: binds
B1: FAM20A WT-HA (protein, UniProt Q96MK3 34-541)
chain: T1 sequence
